Library screen at single concentrations

By UniProt entry, the sequences of proteins in these tests, tags left out. Residues count along the entry.
UniProt A4I591, 1-473: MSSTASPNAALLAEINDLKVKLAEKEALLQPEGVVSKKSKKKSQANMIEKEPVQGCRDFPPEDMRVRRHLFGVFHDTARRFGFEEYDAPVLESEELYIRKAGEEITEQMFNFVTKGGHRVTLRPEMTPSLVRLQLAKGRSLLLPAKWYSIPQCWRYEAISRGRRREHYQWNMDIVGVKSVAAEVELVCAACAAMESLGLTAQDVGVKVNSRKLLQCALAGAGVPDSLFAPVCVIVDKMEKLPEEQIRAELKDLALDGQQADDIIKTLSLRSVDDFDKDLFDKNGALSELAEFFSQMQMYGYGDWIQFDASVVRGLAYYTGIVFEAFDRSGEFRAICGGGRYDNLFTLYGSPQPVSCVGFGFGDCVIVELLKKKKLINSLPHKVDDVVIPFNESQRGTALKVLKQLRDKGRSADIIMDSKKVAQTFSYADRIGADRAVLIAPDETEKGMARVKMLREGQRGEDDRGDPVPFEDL
UniProt Q8IDJ8, 1-583: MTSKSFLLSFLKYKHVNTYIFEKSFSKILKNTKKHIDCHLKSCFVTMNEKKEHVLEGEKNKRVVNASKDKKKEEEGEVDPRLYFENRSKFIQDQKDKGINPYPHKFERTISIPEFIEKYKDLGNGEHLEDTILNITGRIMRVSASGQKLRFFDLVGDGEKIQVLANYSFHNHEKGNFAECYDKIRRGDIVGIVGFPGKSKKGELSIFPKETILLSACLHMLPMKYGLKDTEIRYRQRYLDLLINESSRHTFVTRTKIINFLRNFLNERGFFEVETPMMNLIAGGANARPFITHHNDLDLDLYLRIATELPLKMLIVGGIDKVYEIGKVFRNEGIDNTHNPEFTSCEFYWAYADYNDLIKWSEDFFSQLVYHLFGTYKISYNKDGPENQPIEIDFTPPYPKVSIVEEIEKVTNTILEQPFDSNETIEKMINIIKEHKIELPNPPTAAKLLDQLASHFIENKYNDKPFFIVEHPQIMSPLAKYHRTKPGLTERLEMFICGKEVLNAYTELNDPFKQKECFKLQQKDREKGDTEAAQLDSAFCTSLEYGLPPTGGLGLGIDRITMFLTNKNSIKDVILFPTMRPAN

Data taken from ChEMBL document CHEMBL3988442, “University of Dundee, Small-Polar-MMV Screening Library” (2021).

Values are the deposited “Percent Effect”, in %. The controls that fix the scale are not given in the record; negative values are as filed. This is an unselected part of the compounds tested.

LiHisRS: 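Enzyme assay of histidyl-tRNA synthetase; the read-out is not stated. Target: Histidine-tRNA ligase, Leishmania infantum (UniProt A4I591). Concentration: 30 µM. Direction is inferred from retests: higher values go with stronger inhibition. The assay is labelled LdHisRS but filed under L. infantum. Of about 69,000 compounds tested this way, about 410 (0.6%) reached 50% or more in at least one test.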
PfKRS1: 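Lysine-tRNA ligase, Plasmodium falciparum 3D7 (UniProt Q8IDJ8). Enzyme assay of the cytosolic lysyl-tRNA synthetase in 384-well plates, read by luminescence. Concentration: 30 µM. Higher reads as stronger inhibition, judged from the few compounds that gave an IC50. About 69,000 compounds were tested under these conditions; 0.071% (about 49) showed 50% or more at least once.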

SMILES,LiHisRS,PfKRS1
CC(C)(C)c1cc(NC(=O)CN2CCc3cncnc3C2)on1,19.64%,3.121%
CN(CC(N)=O)C(=O)c1cc(Cl)c(Cl)n1C,3.125%,3.575%
Cc1ccc(S(=O)(=O)N(CC2CCOC2)C2CC2)cc1N(C)C (centres undefined),6.218%,-2.505%
CN(CCc1ccccc1)c1cnn(CC(=O)N2CCOCC2)c(=O)c1,8.602%,3.647%
O=C(COc1coc(CN2CCCCC2)cc1=O)Nc1ccc(Cl)cc1,9.709%,0.7347%
CC(c1cccc(-c2ncccc2F)c1)N(C)C (centres undefined),14.29%,4.37%
COC(=O)CCNC(=O)c1nnn(-c2ccccc2)c1C(F)(F)F,14.58%,4.894%
CCn1nc2c(cc1=O)CN(c1ncnc3sccc13)CC2,101.8%,4.943%
COc1nn(C)c2c1CCCN(C(=O)c1ccc(C)c(F)c1)C2,7.407%,-16.32%
N[C@H]1CN(C(=O)c2ccc(CO)cc2)C[C@@H]1C1CC1,0%,-1.231%
COCC(=O)NCCc1nc(N(C)C)ncc1-c1ccncc1,12.95%,1.424%
CC(C)CCN(C(=O)c1nc(S(C)(=O)=O)n2ccccc12)C1CC1,13.89%,0.6626%
CC(O)CN1CCC(CN(C)Cc2ccc(C#N)cc2)CC1 (centres undefined),9.859%,-1.526%
Cc1nc(NCc2ccccn2)c2c(n1)c(C)nn2C,21.24%,7.233%
O=C(Cn1cc(C2CC2)nn1)N(Cc1ccco1)CC1CCCO1 (centres undefined),11.71%,1.584%
CC(=O)N[C@@H]1CN(C(=O)c2csc(C(C)C)n2)C[C@H]1C(C)C,13.19%,2.857%
CCOc1nc2cnccc2n(CC(=O)Nc2ccccc2OC)c1=O,17.98%,3.5%
COCCCNC(=O)CN(C)C(=O)CN(C)c1ccc(C#N)cn1,21.95%,-0.2287%
CCCNC(=O)c1cccc2ncccc12,23.08%,2.413%
COC(=O)CC1CCN(C(=O)c2ccc(C)cc2)CC1,6.522%,-1.404%
O=C(N[C@]12CC1CN(C(=O)c1ccco1)C2)c1cccc(F)c1 (some centres undefined),11.65%,0.6195%
COc1ccc(C2SC(C)=Nc3c2c(=O)[nH]n3C2CCCC2)cc1O (centres undefined),48.91%,6.641%
COC(=O)c1cccc(C(=O)N2CCCCC2CCn2ccnc2C)c1 (centres undefined),24.27%,5.139%
CNC(=O)c1sccc1S(=O)(=O)NC,-8%,0.7805%
Cc1ncccc1C(=O)Nc1cccc(Cn2ccccc2=O)c1,10.59%,0.6434%
CS(=O)(=O)NCCNC(=O)NC1(c2ccc(F)cc2)CCCC1,15%,6.835%
COc1ccc(CN2CCCC2)cc1Oc1ccc(NC(C)=O)cc1,21.33%,-0.7579%
O=C(CC1CC1)N1CCC2(CC1)CC(Oc1ccccc1)CO2 (centres undefined),24.32%,4.854%
COc1c(C2CCCN2Cc2cn3ccsc3n2)c(C)nn1C (centres undefined),23.08%,4.444%
Cc1noc(C2CCCN(C(=O)c3ccc(Cl)cc3F)C2)n1 (centres undefined),-1.653%,1.518%
CC(=O)c1cc(C(=O)NC2(c3ccc(Br)cc3)CC2)n(C)c1,29.58%,4.333%
CC(NC(=O)N1CCNC(=O)CC1)c1ccc(C(F)(F)F)cc1 (centres undefined),20%,4.863%
Cc1ccc(CN2CCC3(CC(C(=O)NCC4CC4)=NO3)C2)s1 (centres undefined),18.92%,3.715%
CCC[C@@H]1CN(Cc2nnc(-c3cccnc3)o2)C[C@H]1NC(C)=O,11.76%,6.759%
Cc1cc(C(F)(F)F)nn1C(C)C(=O)NN1CCOCC1 (centres undefined),12.5%,2.508%
CS(=O)(=O)N1CCC(Cc2cnc(Br)cn2)CC1,15.6%,4.048%
CN(C)CC1CN(Cc2nnc(C(C)(C)C)o2)CCO1 (centres undefined),-3.636%,0.8172%
O=C(c1ccc2c(c1)CCC2)N1CCn2ncnc2C1,0%,8.072%
COc1cccc(CC2CCCN2CCCC#N)c1 (centres undefined),5.128%,-1.12%
O=C(NC1CCCC1)N1C[C@H]2CN(c3ccccn3)C[C@@]2(C(=O)O)C1,3.922%,2.471%
COCCS(=O)(=O)NC(C)c1ccccc1Br (centres undefined),22.12%,5.693%
Cc1cc(C)c(CNc2cnc3ccccc3n2)c(=O)[nH]1,2.74%,2.511%
CC(C)Oc1ccccc1CNC(=O)N(C)CC(F)F,17.78%,1.777%
O=C1CO[C@H]2CN(Cc3cccc4[nH]ccc34)C[C@@H]2N1C1CCOCC1,8.966%,-0.6837%
c1ccc(CCN2CCCC(c3ccnc4nccn34)C2)cc1 (centres undefined),17.27%,3.232%
Cc1noc(C)c1CNS(=O)(=O)N(C)Cc1ccccc1Br,0%,4.44%
O=C(O)c1cc(S(=O)(=O)N2CCOc3ccccc32)cc(Cl)c1Cl,4.63%,0.8099%
CC(C)OC[C@H]1CCC[C@]12CN(S(=O)(=O)c1cn(C)cn1)CCO2,15.38%,2.464%
O=C(c1ccc2c(c1)OCO2)N1CCC(Nc2cccnn2)CC1,12.17%,-1.974%
Cn1cc(CN2C[C@@H]3[C@@H](C2)OCC(=O)N3Cc2ccncc2)cn1,19.61%,5.747%
CC(C)c1sc(Br)nc1C(=O)NCc1ccncc1,25%,2.392%
Cc1noc(C(C)C)c1C(=O)NCC1CCCN1Cc1ccccc1 (centres undefined),32.39%,0.8124%
CC(C)CN1Cc2nc(N)ncc2C1=O,16.05%,91.22%
Cc1nc(-c2ccsc2)ccc1C(=O)N1CCn2c(C)nnc2C1,0%,-2.259%
Cc1ccc(-n2nnc(CC(=O)N3CCSCC3)c2C)cc1,16.04%,0.1751%
COC(=O)[C@@H]1C[C@@H](O)CN1Cc1ccn(-c2ccc(F)cc2)n1,-5.882%,0.3003%
c1coc(CNc2nnc(Cc3ccsc3)o2)c1,17.5%,2.882%
Cc1ccc(-c2nc(CN3CCC(C(=O)N(C)C)CC3)cs2)o1,29.73%,3.847%
CN(C)CCO[C@@H]1CC[C@H]2[C@H]1OCCN2C(=O)c1ccccc1F,9.722%,0.0926%
c1coc(CN2CCn3c(nc4ccccc43)C2)c1,1.235%,-2.41%
Cc1cnn(CC2CCCN2C(=O)c2cc3ccccc3[nH]2)c1 (centres undefined),10.67%,6.407%
C1CC(CN2CCO[C@H]3[C@H](OCC4CC4)CC[C@@H]32)CCO1,7.692%,5.696%
O=C(c1ccc2c(c1)[nH]c(=O)n2[C@H]1CC[C@H](O)CC1)N1CCOCC1,12.82%,5.137%
Cn1cccc1C(=O)N1Cc2c(CN3CCCCC3)nn(C)c2C1,-0.885%,5.852%
O=C(c1cccc(C2CCNC2)c1)N1CCC(c2ccncc2)CC1 (centres undefined),32.53%,-1.377%
CCc1nc(C)c(C2CC(=O)Nc3c2c(-c2ccccn2)nn3C)[nH]1 (centres undefined),15.38%,-1.261%
c1csc(-c2noc(CN3CCCCC3Cn3cccn3)n2)c1 (centres undefined),7.895%,-1.136%
CCCNC(=O)c1cc(C2CCCN(Cc3ccccn3)C2)no1 (centres undefined),3.448%,-0.1367%
Cn1ccc(NC(=O)CN2CCC(Oc3cnccn3)CC2)n1,8.451%,0.3051%
Cc1cc(C)c(CNC(=O)NCC2Cc3ccccc3O2)c(=O)[nH]1 (centres undefined),8.108%,12.96%
c1ccc(-c2nc(CNC3CCc4ncnn4C3)co2)cc1 (centres undefined),21.92%,3.327%
CC(C)(C)c1cnc(CN2CCC(c3ccnn3CCO)CC2)o1,7.865%,10.35%
CN(CCC(C)(C)O)C(=O)C1CCC(=O)N(Cc2ccc(Cl)cc2)C1 (centres undefined),1.333%,7.402%

Once more, the final 4:

SMILES	LiHisRS	PfKRS1
Cc1cc(C)c(CNC(=O)NCC2Cc3ccccc3O2)c(=O)[nH]1 (centres undefined)	8.108%	12.96%
c1ccc(-c2nc(CNC3CCc4ncnn4C3)co2)cc1 (centres undefined)	21.92%	3.327%
CC(C)(C)c1cnc(CN2CCC(c3ccnn3CCO)CC2)o1	7.865%	10.35%
CN(CCC(C)(C)O)C(=O)C1CCC(=O)N(Cc2ccc(Cl)cc2)C1 (centres undefined)	1.333%	7.402%